Source: publication PMC10616288
Results are given in words; binding and its absence hold for the method and conditions named. Some entries that bind do so weakly or less than the wild type. One block for each molecule: values may come before it.

How the values were obtained:
mCherry-C/EBPα-p30 = mCherry-C/EBPα-p30 (UniProt P49715); assay: native gel or EMSA; lysates of co-transfected HEK 293 T cells in non-denaturing lysis buffer without SDS; 8% native PAGE, Tris-glycine running buffer pH 8.8; western blot
mCherry-LZ = assay: as above

binding (mCherry-C/EBPα-p30): binds
Molecule: mCherry-C/EBPα-p30 (from UniProt P49715-1 120-358)

binding (mCherry-LZ): binds
B1: mCherry-LZ (domain or fragment)
chain: TQQKVLELTSDNDRLRKRVEQLSRELDTLRGIFRQL
